The whole screen tested about 340,000 compounds, of which about 1,200 (0.35%) were called active. This list was built around the results that the source calls inconclusive (neither active nor inactive); the mix of calls is not that of the screen. Cut-off read from the data, not from the text of the source: active = inhibition above about 50% (passing the limit was not always enough); inconclusive = no clear call, values can overlap the other calls; inactive = below about 31%.
assay: blockers of Vif multimerization in cells – imaging, HEK293T, single point, primary screen (AID 602346); conditions: Vif self-association by quenched fluorescence, 24 h, at 7.49 µM, stronger effect = higher value

Compound	inhibition
C=CCCCOc1ccc(C(=O)O)cc1	active: 57.8%
CNC(=O)CCc1nc(-c2ccc(C(C)(C)C)cc2)no1	inactive: -3.41%
CCC(=O)OCOc1ccc(/C=C2/CCC(CN(C)C)C2=O)cc1 (stereo unspecified)	inactive: -8.7%
CC1CN(C(=O)c2ccccc2NS(=O)(=O)c2ccc(Cl)cc2)CC(C)O1 (stereo unspecified)	inconclusive: 36.1%
C[C@@H]1CN([C@H](C)CO)S(=O)(=O)c2ccc(-c3cccc(C#N)c3)cc2O[C@H]1CN(C)C(=O)Nc1cc(F)ccc1F	inconclusive: 34.3%
CC(C)(C)NC(=O)NC(=O)COc1ccccn1	inconclusive: 47.7%
Cc1cccc(C(O)C(O)c2cccc(C)n2)n1 (stereo unspecified)	inconclusive: 36.1%
Cc1ccc(NC(=O)C2CCC(N3C(=O)C4CCCCC4C3=O)CC2)cc1 (stereo unspecified)	inconclusive: 29.3%
S=C(NCc1ccccc1)Nc1ccc2ccccc2c1	inactive: -4.04%
COc1ccc2cc(-c3cc(C(=O)OCC(=O)NC4CCS(=O)(=O)C4)c4ccccc4n3)ccc2c1 (stereo unspecified)	active: 51.8%
CC(C)N(Cc1nc(-c2ccccc2)no1)C(=O)CN(C)S(=O)(=O)c1ccc(Br)cc1	inconclusive: 49.9%
CCC1=C(c2ccc(C)cc2)S(=O)(=O)N=C1N1CCC(C(=O)NCCCN2CCCCC2)CC1	inactive: 2.73%
CN(C)/C=C/C(=O)c1ccccc1	inactive: 3.93%
CC(C)(C)[C@H]1COC(=O)CCC/C=C/C[C@H](CC(=O)NCCO)C(=O)N1	inconclusive: 32.4%
CCCc1ncc(C(O)c2ccc(OC)cc2)n1C (stereo unspecified)	inconclusive: 49.7%
COc1ccccc1CNC(=O)CCN=C1NS(=O)(=O)c2ccccc21	inconclusive: 41.3%
COc1nc(-c2ccccc2)cc(-c2ccc3c(c2)OCO3)c1C#N	inconclusive: 27.6%
COc1ccc(C(CNC(=O)CSc2ccc(Br)cc2C)N2CCOCC2)cc1 (stereo unspecified)	inconclusive: 48.1%
CC1CCN(C(=O)C2CC(c3ccc(F)cc3)=NO2)CC1 (stereo unspecified)	inconclusive: 43%
Cc1c(Cl)cccc1NC(=O)CSc1nnc(C)n1-c1ccccc1	inconclusive: 41.6%
Cc1sc2nc(-c3ccc(Br)cc3)oc(=O)c2c1C	inactive: -3%
CC12CCC(CC1)C(C)(C)O2	inconclusive: 38.7%

Compound	inhibition
CC1CCN(Cc2c(C(=O)N/N=C/c3ccc(C(F)(F)F)cc3)nnn2-c2nonc2N)CC1	inactive: 9.51%
COC(=O)C1=CN(Cc2ccccc2)C=C(C(=O)OC)C1c1ccc(O)c(OC)c1	inconclusive: 14.7%
COc1cc(CN2CCCC(N3CCN(c4ccccc4C)CC3)C2)ccc1O (stereo unspecified)	inconclusive: 44.3%
COCCNC(=O)C(c1ccc(F)cc1)N(Cc1ccco1)C(=O)CCC(=O)Nc1nccs1 (stereo unspecified)	inconclusive: 26.5%
CCC1=Nc2cc(C(=O)NCc3cccnc3)ccc2Sc2ccc(C)cc21	inconclusive: 26.6%
CCN(c1ccccc1)S(=O)(=O)c1ccc(C(=O)Nc2ccc(C)cn2)cc1	inactive: -12.5%
CC(C)(C)NC(=O)C(c1ccccc1)N(C(=O)C1CSC(=O)C1)c1ccccc1 (stereo unspecified)	inconclusive: 32.6%
O=C(Nc1ccc2oc(-c3ccncc3)nc2c1)c1ccc([N+](=O)[O-])o1	inconclusive: 38.6%
O=C(OCn1ncc(Br)c(Br)c1=O)c1ccccc1Cl	inconclusive: 46.3%
CC(C)(C)c1cc(C(=O)N/N=C/c2ccccn2)n[nH]1	inconclusive: 29.7%
CC(C)n1c(CNC(=O)c2ccccc2F)nnc1SCC(=O)NC1CCCCC1	active: 53.5%
CC1CCN(C(=O)CCNS(=O)(=O)c2ccc(Br)cc2)CC1	inconclusive: 38.5%
CC(C)OC(=O)CN1C(=O)C(C)(C)Oc2ccc(C(=O)NC(C)(C)C)cc21	inconclusive: 41.8%
C=CCNC(=O)c1nc2ccccc2s1	inconclusive: 31.1%
Cc1cc(SCC(=O)c2ccc(Cl)cc2)nc(=O)[nH]1	inconclusive: 28.8%
O=C1c2ccccc2S(=O)(=O)N1Cc1cccc(S(=O)(=O)N2CCOCC2)c1	inconclusive: 18.6%
CC1CCC(C(C)C)C(OCC(O)C[N+]2(C)CCCCC2)C1 (stereo unspecified)	inconclusive: 30.1%
COc1ccc(C2CC(c3c(O)cc(C)oc3=O)=NCCS2)c(OC)c1 (stereo unspecified)	inconclusive: 49.2%
O=C(Nc1cccc(S(=O)(=O)N2CCCC2)c1)[C@@H]1O[C@H](CO)[C@@H](O)[C@H]1O	inconclusive: 40.1%
O=C(c1ccco1)N1N=C(c2ccc(Br)cc2)CC1(O)C(F)(F)F (stereo unspecified)	inactive: -2.23%
COC(=O)CSc1nnc(-c2ccc(S(=O)(=O)N3CCC(C)CC3)cc2)o1	inconclusive: 21.4%
CN(C(=O)CCc1nc(-c2ccccc2F)no1)c1ccccc1	inconclusive: 36.6%

Compound	inhibition
Nc1ccc(/C=C/C(=O)c2cccs2)cc1	inconclusive: 41.7%
O=C(NC1CC2CCCC(C1)N2C(=S)Nc1ccccc1)C1CC1 (stereo unspecified)	inconclusive: 37.5%
CC(=O)Nc1ccc(C(=O)/C=C/c2ccc[nH]2)cc1	inconclusive: 22.1%
O=C(N/N=C/c1c[nH]c2ccccc12)c1ccccc1	inconclusive: 46.2%
O=C(c1ccc(OC2CCN(C/C=C/c3ccccc3)CC2)cc1)N1CCCCC1	inactive: -1.74%
Cc1cnc([N+](=O)[O-])n1CCOC(=O)NC(=O)c1cccc(F)c1	inconclusive: 41.9%
O=C(O)c1cccc(-n2nc(-c3ccc(Cl)c([N+](=O)[O-])c3)c3ccccc3c2=O)c1	inactive: 0.401%
Cc1cc([N+](=O)[O-])ccc1NCc1cccc([N+](=O)[O-])c1	inconclusive: 28.2%
O=S(=O)(c1ccc(S(=O)(=O)N2CCN(C3CCCCC3)CC2)cc1)N1CCCCCC1	inconclusive: 38.1%
CSc1cc(-c2ccccc2)n(C)c(=O)c1C#N	inactive: 6.45%
COc1cccc(-c2c(-c3cc(OC)cc(OC)c3)n(C)c3ccc(-c4ccc5[nH]ccc5c4)cc23)c1	inactive: 0.432%
CC(=O)/C(N=Nc1ccc(C(=O)O)cc1[N+](=O)[O-])=C(\C)O	inconclusive: 41.3%
CN(C)c1ccc(C=Cc2ccnc3c(O)cccc23)cc1	active: 50.9%
CCOC(=O)c1cc(CC)sc1NC(=O)c1ccc(N2C(=O)CCC2=O)cc1	inactive: -2.68%
O=C(COC(=O)COc1ccc(Cl)cc1)NC1CCCCC1	inconclusive: 48.3%
COc1c(-c2ccc(O)c(O)c2)oc2cc(O)cc(O)c2c1=O	inconclusive: 39%
COc1ccc(CCNC(=O)c2ccc(CNS(=O)(=O)c3ccccc3)cc2)cc1OC	inconclusive: 31.4%
Cc1ccc(Cl)cc1-n1c(=O)cc(N2CCN(C(=O)c3ccco3)CC2)[nH]c1=O	inconclusive: 28.3%
NC(=O)NC(=O)COC(=O)c1cccc(NS(=O)(=O)/C=C/c2ccccc2)c1	inconclusive: 31.2%
NS(=O)(=O)c1ccc2c(c1)C1C=CCC1C(C1CC=CCC1)N2 (stereo unspecified)	inactive: 0.816%
CCCn1c(N)c(N2CCCCC2)c(=O)n(CC(=O)Nc2ccc(C(C)=O)cc2)c1=O	inconclusive: 37.4%
CCOc1cccc(C(=O)Nc2ccc3oc(Cc4ccc(Cl)cc4)nc3c2)c1	active: 56.4%

Quoted from above for reference:
Compound	inhibition
S=C(NCc1ccccc1)Nc1ccc2ccccc2c1	inactive: -4.04%
COc1ccc2cc(-c3cc(C(=O)OCC(=O)NC4CCS(=O)(=O)C4)c4ccccc4n3)ccc2c1 (stereo unspecified)	active: 51.8%

Additional entries.

Compound	inhibition
C/C(=N\Nc1ccc([N+](=O)[O-])cc1)c1cc2ccccc2o1	inconclusive: 31.4%
CCCCOC(=O)/C(=C\c1ccc([N+](=O)[O-])o1)NC(=O)c1ccccc1	inconclusive: 45.2%
CC(=O)c1ccccc1NC(=O)CN1C(=O)NC2(CCCCCCC2)C1=O	inconclusive: 35.9%
CCOc1cc(S(=O)(=O)NCc2ccc3c(c2)OCO3)ccc1F	inconclusive: 23.4%
CCOc1ccc(NC(=O)/C(C#N)=C/c2ccc(N3CCCC3)c(C)c2)cc1	inconclusive: 41.5%
N#C/C(=C\c1c[nH]c2ccccc12)C(=O)NC1CC1	inactive: 9.78%
Fc1ccc(N2CCN(/C=C/c3nnnn3-c3ccccc3)CC2)cc1	inactive: -0.771%
N#Cc1ccc(-c2cccnc2)nc1SCC(=O)c1ccccc1	active: 173%
O=C(Nc1cccc(C(=O)O)c1)/C(=C\c1ccc(F)cc1)NC(=O)c1ccco1	active: 64.5%
COc1ccc(N2CCN(C(=O)CSc3nnc4c(C)cc5c(C)cc(C)cc5n34)CC2)cc1	inconclusive: 28.1%
O=C(Nc1ccccc1)N1CCC(C(=O)N2CCN(S(=O)(=O)c3cccc(F)c3)CC2)CC1	inconclusive: 35.8%
CCn1c(CSCc2ccc(C)cc2)nnc1SCC(=O)N1CCN(c2ccccc2)CC1	inconclusive: 41.9%
Cc1ccc(NC(=O)CSc2nnc(Cn3c(=O)sc4ccccc43)n2C)cc1Cl	inactive: -0.446%
Cc1ccc(CCNC(=O)C2CCN(S(=O)(=O)c3ccc4c(c3)oc(=O)n4C)CC2)cc1	inconclusive: 37.1%
CC1(C2CC2)NC(=O)N(CC(=O)N2CCN(c3ccccc3)CC2)C1=O (stereo unspecified)	inconclusive: 43.7%
COc1ccc(C2=Nn3c(nnc3-c3ccc(OC)cc3)SC2)cc1	active: 65.5%
COc1ccc(-c2nc3ccccc3c(=O)n2CCCn2ccnc2)cc1	inconclusive: 34.2%
COc1ccc(CNC(=O)/C=C/[C@H]2O[C@@H](n3cnc4c(NC(=O)c5ccccc5)ncnc43)[C@H](O)[C@@H]2O)cc1	inconclusive: 38.2%
O=C(CC(CC(=O)c1ccccc1)c1ccncc1)c1ccccc1	inconclusive: 38.4%
COC(=O)[C@@H](Cc1ccccc1)NC(=O)NCCc1ccccc1	inconclusive: 34.4%

Individual results from above.
Value for COc1ccc(C2=Nn3c(nnc3-c3ccc(OC)cc3)SC2)cc1 under inhibition: active: 65.5%
Value for CC12CCC(CC1)C(C)(C)O2 under inhibition: inconclusive: 38.7%

— PubChem BioAssay AID602346 (Broad Institute, 2012)
